From PubChem BioAssay AID651725 (National Center for Advancing Translational Sciences (NCATS), 2012)
Among all 360,000 compounds or so, about 2,000 (0.56%) were called active. The source calls these results inconclusive, neither active nor inactive. No stated cut-off is given here; in the data, active means activity change below about -65%; inconclusive means mostly about -30% to -63%; inactive means weaker than that.

Sequences of proteins named here, by UniProt entry; tags and fusion partners are left off.
UniProt Q15475, whole entry: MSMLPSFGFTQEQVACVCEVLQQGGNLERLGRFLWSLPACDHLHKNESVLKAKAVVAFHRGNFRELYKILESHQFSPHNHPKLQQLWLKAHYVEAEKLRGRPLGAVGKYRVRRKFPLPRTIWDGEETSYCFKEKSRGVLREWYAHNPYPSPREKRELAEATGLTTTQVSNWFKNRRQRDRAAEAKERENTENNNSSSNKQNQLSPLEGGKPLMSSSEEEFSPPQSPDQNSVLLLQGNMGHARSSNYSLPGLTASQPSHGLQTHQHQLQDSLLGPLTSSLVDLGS

target: Homeobox protein SIX1 (Homo sapiens) + Protein phosphatase EYA2 (Homo sapiens) (UniProt Q15475+O00167); experiment: qHTS Assay for Inhibitors of the Six1/Eya2 Interaction; details: AlphaScreen GST-Six1/His-Eya2 binding, biochemical; stronger effect = lower value
Source text: Its expression is low or undetectable in normal adult breast tissue but the gene is over-expressed in 50% of primary breast tumors and 90% of metastatic lesions. […] Similar to Six1, Eya2 is also not expressed in most normal adult tissues, but is reexpressed in cancers. The Six1-Eya interaction is essential for proliferation during embryonic development, and both Six1 and Eya2 have been independently implicated in the same types of cancer. Because Six1 and Eya2 are embryonic genes with little expression in adult tissues, inhibitors of their expression/activity are likely to have limited side effects. Our goal is to identify inhibitors of the Six1/Eya interaction for potential cancer therapy. To this end, we have developed a homogenous AlphaScreen assay targeting the Six1/Eya interaction. We performed a large scale HTS of the Molecular Libraries Small Molecule Repository (MLSMR) to identify inhibitors of the Six1/Eya interaction as potential anti-cancer therapeutics. Compounds identified can also be used as chemical probes to better understand the biological functions of Six1 and Eya. NIH Chemical Genomics Center [NCGC] NIH Molecular Libraries Probe Centers Network [MLPCN] MLPCN Grant: DA033147 Assay Submitter (PI): Rui Zhao, University of Colorado Denver
The first step of the 5 uL AlphaScreen assay is to dispense assay buffer (50 mM Tris, pH 8.0, 300 mM NaCl, 0.05% BSA, 0.02% Tween 20, 1 mM TCEP) into a Greiner 1536 white solid bottom microtiter plate (789175-F). Five microliters is added to Column 1, 4 uL is added to Column 2 and 3 uL is added to Columns 3 through 48. A 5X protein solution (250 nM GST-Six1 protein + 500 nM His-tagged Eya2 protein) is mixed and 1 uL is dispensed to Columns 3-48. Using a 1536 pintool, 23 nL of compound is transferred to the assay plate. A solution of 5X AlphaScreen beads is mixed (50 ug/mL Glutathione linked donor beads + Nickel chelated acceptor beads) and 1 uL is dispensed to Columns 2-48. The assay plate is incubated for one hour, with a lid, at 37 deg C in the dark. The plate is read using a Perkin Elmer Envision using an AlphaScreen protocol.
On the % scale 0 is the no-effect control and ±100 the full control effect.

Structure (SMILES) | activity change
Cc1ccc(Nc2c([N+](=O)[O-])cc([N+](=O)[O-])cc2[N+](=O)[O-])cc1 | inconclusive: -48%
O=[N+]([O-])c1cc([N+](=O)[O-])c(Nc2ccc(Cl)cc2)c([N+](=O)[O-])c1 | inconclusive: -31%
O=C1C(O)=C([N+](=O)[O-])C(=O)C(O)=C1[N+](=O)[O-] | inconclusive: -38.4%
